Laboratory results: PMC5021806
No constants are given. Whether binding was seen depends on the method and setting. Binding seen in cells or lysates may run through a third protein. A result given as binding can be weak or reduced; the word gives no strength.

Target: HA-tagged human SLX4 (N-terminally truncated) (human)
Assay: co-IP; HA-tagged ΔN SLX4 and 3x FLAG Vpr transiently coexpressed in 293T cells; lysed in RIPA buffer plus protease inhibitors in an ice-cold sonicator bath; immunoprecipitation with anti-HA affinity gel 1 h at 4 C, four washes; Western blot with anti-FLAG

B1: HIV-1 N Vpr (consensus sequence) (protein)
chain: MERAPEDAGPQREPYNEWALELLEELKNEAVRHFPRIWLHGLGQHIYNTYGDTWEGVEAIIRILQQLLFIHYRIGCQHSRIGITPQRRRNGASRS
For B1, the binding was “binds”.
